# Measured values reported in the supplement of paper PMC10470496.
# Where a name gives a salt, the structure may show the parent alone. Some of the results follow. Single values are uncertain, as repeats are few or missing.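 The three strains are clinical Candida auris isolates from the CDC resistance isolate bank, from clades III, IV and I, grown in RPMI-1640 at 35°C. Growth is background-corrected OD600 relative to vehicle-only wells on the same plate; a hit meant over 50% inhibition in at least two strains plus a plate-corrected B-score above 0.1.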
# Key:
# Test in all cases: growth relative to vehicle control (OD600 ratio) (fraction); higher = less inhibition
# Conditions in all cases: 24 h
# C. auris AR-384 = system: C. auris AR-384
# C. auris AR-386 = system: C. auris AR-386
# C. auris AR-387 = system: C. auris AR-387
SMILES,growth (C. auris AR-384; 1 µM),growth (C. auris AR-384; 10 µM),growth (C. auris AR-386; 1 µM),growth (C. auris AR-386; 10 µM),growth (C. auris AR-387; 1 µM),growth (C. auris AR-387; 10 µM)
Fc1ccc([C@@H]2CCNC[C@H]2COc2ccc3c(c2)OCO3)cc1 [Paroxetine HCl],1.05,1.14,0.88,0.95,0.99,0.93
COc1ccccc1N1CCN(CC(O)COc2cccc3ccccc23)CC1 (stereo unspecified) [Naftopidil],0.63,0.6,0.77,0.68,0.71,0.76
C[N+](C)(C)CC(O)CC(=O)[O-] (racemic) [DL-Carnitine HCl],0.78,1.02,1.27,0.98,1.28,1.28
Cc1ccc([C@@H]2O[C@H](CO)[C@@H](O)[C@H](O)[C@H]2O)cc1Cc1ccc(-c2ccc(F)cc2)s1 [Canagliflozin],1.43,1.03,0.91,0.99,0.97,0.98
CCCc1nn(C)c2c(=O)[nH]c(-c3cc(S(=O)(=O)N4CCN(C)CC4)ccc3OCC)nc12 [Sildenafil Mesylate],0.9,0.9,0.72,0.97,0.6,0.87
CNC[C@@H](O)c1ccc(O)c(O)c1 [L-Adrenaline],0.68,0.72,0.63,0.69,0.72,0.8
CC1Cc2ccccc2N1NC(=O)c1ccc(Cl)c(S(N)(=O)=O)c1 (stereo unspecified) [Indapamide],1,1.11,1.34,1.31,1.17,1.07
c1ccc(C2CN3CCSC3=N2)cc1 (stereo unspecified) [Tetramisole HCl],0.58,0.38,0.8,0.71,0.72,0.62
CCCCCCCCCC(=O)N[C@@H](Cc1c[nH]c2ccccc12)C(=O)N[C@H](CC(N)=O)C(=O)N[C@@H](CC(=O)O)C(=O)N[C@@H]1C(=O)NCC(=O)N[C@@H](CCCN)C(=O)N[C@@H](CC(=O)O)C(=O)N[C@H](C)C(=O)N[C@@H](CC(=O)O)C(=O)NCC(=O)N[C@H](CO)C(=O)N[C@@H]([C@H](C)CC(=O)O)C(=O)N[C@@H](CC(=O)c2ccccc2N)C(=O)O[C@@H]1C [Daptomycin],1.15,1.28,1.02,1.23,1.24,1.18
NCCS(=O)(=O)O [Taurine],1.58,1.33,1.2,1.33,1.15,1.2
Nc1ccc(/N=N/c2ccccc2)c(N)n1 [Phenazopyridine HCl],1.32,0.92,1,1.09,0.87,0.83
Oc1ccc(Cl)c2cccnc12 [Cloxiquine],1.07,0.78,0.73,0.24,0.72,0.31
Nc1nc(F)nc2c1ncn2[C@@H]1O[C@H](COP(=O)(O)O)[C@@H](O)[C@@H]1O [Fludarabine Phosphate],1.12,0.91,0.82,0.87,0.98,0.82
CO[C@H]1C[C@@H]2CC[C@@H](C)[C@@](O)(O2)C(=O)C(=O)N2CCCC[C@H]2C(=O)O[C@H]([C@H](C)C[C@@H]2CC[C@@H](OC(=O)C(C)(CO)CO)[C@H](OC)C2)CC(=O)[C@H](C)/C=C(\C)[C@@H](O)[C@@H](OC)C(=O)[C@H](C)C[C@H](C)/C=C/C=C/C=C/1C,0.15,0.13,0.22,0.14,0.12,0.1
CN1CCN(c2ccc3nc(-c4c(N)c5c(F)cccc5[nH]c4=O)[nH]c3c2)CC1 [Dovitinib (TKI258) Lactate],1.03,0.8,0.86,0.83,0.73,1.01
CN1CCC(=C2c3ccccc3C=Cc3ccccc32)CC1 [Cyproheptadine hydrochloride],0.75,0.72,1.14,0.68,1,0.75
Cc1nccn1CC1CCc2c(c3ccccc3n2C)C1=O (stereo unspecified) [Ondansetron HCl],0.68,0.93,0.89,0.97,0.75,0.95
Cn1c(=O)cc(N2CCC[C@@H](N)C2)n(Cc2cc(F)ccc2C#N)c1=O [Trelagliptin],0.94,0.77,1.03,0.98,0.94,1.01
CN(C)CCOC(C)(c1ccccc1)c1ccccn1 (stereo unspecified) [Doxylamine Succinate],0.79,0.91,1.01,1.27,0.92,1.01
NNC(=O)c1ccncc1.Nc1ccc(C(=O)O)c(O)c1 [Pasiniazid],0.85,0.65,0.78,0.73,0.77,0.95
C#C[C@]1(O)CC[C@H]2[C@@H]3CCC4=CC(=O)CC[C@@H]4[C@H]3C(=C)C[C@@]21CC [Etonogestrel],0.73,1.03,0.75,0.92,0.65,0.83
COC(=O)C1=C(C)NC(C)=C(C(=O)OC2CCCN(Cc3ccccc3)C2)C1c1cccc([N+](=O)[O-])c1 (stereo unspecified) [Benidipine HCl],0.9,0.95,0.87,0.9,0.75,0.81
CNCCCC12CCC(c3ccccc31)c1ccccc12 [Maprotiline HCl],0.91,0.82,0.6,0.77,0.81,0.98

# Only growth (C. auris AR-386; 1 µM) and growth (C. auris AR-384; 1 µM) (4 entries from above):
SMILES,growth (C. auris AR-386; 1 µM),growth (C. auris AR-384; 1 µM)
Cc1nccn1CC1CCc2c(c3ccccc3n2C)C1=O (stereo unspecified) [Ondansetron HCl],0.89,0.68
Cn1c(=O)cc(N2CCC[C@@H](N)C2)n(Cc2cc(F)ccc2C#N)c1=O [Trelagliptin],1.03,0.94
CN(C)CCOC(C)(c1ccccc1)c1ccccn1 (stereo unspecified) [Doxylamine Succinate],1.01,0.79
NNC(=O)c1ccncc1.Nc1ccc(C(=O)O)c(O)c1 [Pasiniazid],0.78,0.85

# (listing goes on)

SMILES,growth (C. auris AR-384; 1 µM),growth (C. auris AR-384; 10 µM),growth (C. auris AR-386; 1 µM),growth (C. auris AR-386; 10 µM),growth (C. auris AR-387; 1 µM),growth (C. auris AR-387; 10 µM)
Oc1c(Cl)cc(Cl)c(Cl)c1Cc1c(O)c(Cl)cc(Cl)c1Cl [Hexachlorophene],0.65,0.44,0.67,0.74,0.68,0.44
Nc1ccn([C@@H]2O[C@H](CO)[C@@H](O)C2(F)F)c(=O)n1 [Gemcitabine],1.04,1.1,0.74,0.95,0.79,1.01
CC(C)(C)c1ccc(C(O)CCCN2CCC(C(O)(c3ccccc3)c3ccccc3)CC2)cc1 (stereo unspecified) [Terfenadine],1.44,1.47,1.12,0.97,0.93,1.42
O=C(Nc1nc2cccc(-c3ccc(CN4CCS(=O)(=O)CC4)cc3)n2n1)C1CC1 [Filgotinib (GLPG0634)],0.7,0.77,1.09,0.73,0.61,0.58
C=C1[C@H](CO)[C@@H](O)C[C@@H]1n1cnc2c(=O)[nH]c(N)nc21 [Entecavir Hydrate],1.07,0.83,0.75,0.9,0.79,1.05
CN(C)CC(c1ccc(O)cc1)C1(O)CCCCC1 (stereo unspecified) [Desvenlafaxine Succinate],0.95,0.96,1,1.08,0.96,0.82
O=C(O)CCC(=O)Nc1ccc(S(=O)(=O)Nc2nccs2)cc1 [Succinylsulfathiazole],0.79,0.9,0.82,0.66,0.6,0.6
COc1ccc(CC2c3cc(OC)c(OC)cc3CC[N+]2(C)CCC(=O)OCCCCCOC(=O)CC[N+]2(C)CCc3cc(OC)c(OC)cc3C2Cc2ccc(OC)c(OC)c2)cc1OC (stereo unspecified) [Atracurium Besylate],0.68,0.62,0.94,0.85,0.99,0.83
CCC(=O)O[C@@H](O[P@](=O)(CCCCc1ccccc1)CC(=O)N1C[C@H](C2CCCCC2)C[C@H]1C(=O)O)C(C)C [Fosinopril Sodium],0.85,1.02,0.97,0.81,0.85,0.89
Clc1ccccc1CN1CCc2sccc2C1 [Ticlopidine HCl],0.75,1.22,0.92,0.99,0.79,1.11
CC(C)c1nc(CN(C)C(=O)N[C@@H](CCN2CCOCC2)C(=O)N[C@H](CC[C@H](Cc2ccccc2)NC(=O)OCc2cncs2)Cc2ccccc2)cs1 [Cobicistat (GS-9350)],0.89,0.85,0.7,0.79,0.85,0.76
NNC(=O)c1ccncc1 [Isoniazid],1.06,1,1.09,0.94,0.64,0.57
Nc1ccn([C@@H]2O[C@H](CO)[C@@H](O)C2(F)F)c(=O)n1 [Gemcitabine HCl],0.6,0.91,0.89,1.12,0.88,0.79
CC[N+](CC)(CC)CCOc1cccc(OCC[N+](CC)(CC)CC)c1OCC[N+](CC)(CC)CC [Gallamine Triethiodide],1.06,0.96,0.82,1.14,1.12,0.91
CC1(C)[C@H](C(=O)O)N2C(=O)C[C@H]2S1(=O)=O [Sulbactam],0.69,0.82,0.91,0.69,0.78,0.72
CN(C)C/C=C/C(=O)Nc1cc2c(Nc3ccc(F)c(Cl)c3)ncnc2cc1O[C@H]1CCOC1 [Afatinib (BIBW2992) Dimaleate],0.93,0.77,0.7,0.95,0.85,0.95
Cc1c(O)cccc1C(=O)N[C@@H](CSc1ccccc1)[C@H](O)CN1C[C@H]2CCCC[C@H]2C[C@H]1C(=O)NC(C)(C)C [Nelfinavir Mesylate],0.77,1.05,0.82,0.81,0.94,0.99
Oc1c(I)cc(Cl)c2cccnc12 [Clioquinol],0.12,0.11,0.08,0.08,0.02,0.05
CC#CC(=O)N1CCC[C@H]1c1nc(-c2ccc(C(=O)Nc3ccccn3)cc2)c2c(N)nccn12 [Acalabrutinib (ACP-196)],0.74,0.78,0.74,0.86,0.67,0.71
CCC[C@@H]1C[C@@H](C(=O)N[C@@H]([C@H]2O[C@H](SC)[C@H](O)[C@@H](O)[C@H]2O)[C@H](C)Cl)N(C)C1 [Clindamycin],1.34,1.33,1.34,1.38,1.36,1.25
CCCC(=O)OCOC(=O)C1=C(C)NC(C)=C(C(=O)OC)C1c1cccc(Cl)c1Cl (stereo unspecified) [Clevidipine Butyrate],1.33,1.19,1.22,1,0.9,0.81
NC(=O)[C@@H]1CCCN1C(=O)[C@H](Cc1c[nH]cn1)NC(=O)[C@@H]1CCC(=O)N1 [Protirelin],0.8,0.69,0.79,0.71,0.73,0.63
CC[C@H](C)[C@H](NC(=O)[C@@H]1CCCN1C(=O)CNC(=O)[C@H](Cc1ccccc1)NC(=O)[C@H](CC(N)=O)NC(=O)[C@H](CC(N)=O)NC(=O)[C@H](CO)NC(=O)[C@H](CO)NC(=O)[C@H](Cc1c[nH]cn1)NC(=O)[C@@H](NC(=O)[C@H](CC(C)C)NC(=O)[C@H](Cc1ccccc1)NC(=O)[C@H](CC(N)=O)NC(=O)[C@H](C)NC(=O)[C@H](CC(C)C)NC(=O)[C@H](CCCNC(=N)N)NC(=O)[C@H](CCC(N)=O)NC(=O)[C@@H](NC(=O)[C@H](C)NC(=O)[C@@H]1CSSC[C@H](NC(=O)[C@@H](N)CCCCN)C(=O)N[C@@H](CC(N)=O)C(=O)N[C@@H]([C@@H](C)O)C(=O)N[C@@H](C)C(=O)N[C@@H]([C@@H](C)O)C(=O)N1)[C@@H](C)O)C(C)C)C(=O)N[C@@H](CC(C)C)C(=O)N1CCC[C@H]1C(=O)N1CCC[C@H]1C(=O)N[C@H](C(=O)N[C@@H](CC(N)=O)C(=O)N[C@H](C(=O)NCC(=O)N[C@@H](CO)C(=O)N[C@@H](CC(N)=O)C(=O)N[C@H](C(=O)N[C@@H](Cc1ccc(O)cc1)C(N)=O)[C@@H](C)O)C(C)C)[C@@H](C)O [Pramlintide Acetate],0.72,0.94,0.53,0.71,0.78,0.81
